Experimental data reported in PubChem BioAssay AID1487 (National Center for Advancing Translational Sciences (NCATS), 2009).
The other results are listed elsewhere or left out. Shown are side measurements of this screen, not its main read-out; they come without a call. Compounds called inactive in the main read-out are mostly missing here. Potencies come from curve fits of mixed quality, noted in brackets.

Experiment: qHTS Assay for Modulators of Lamin A Splicing
Settings: HeLa LMNA splicing GFP/RFP minigene ratio, 48 h
Method in brief: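 Read-out is the ratio of GFP to DsRed2 object intensity, acquired by 488 nm laser-scanning cytometry on HeLa lamin A-EGFP minigene reporter cells. Compound incubation 48 hrs at 37 °C in Opti-MEM with 2% FBS; DMSO 0.5% final.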

[1] = measured here: GFP splicing reporter channel
[2] = measured here: RFP viability control channel

Row | Compound | AC50 [1] | AC50 [2]
1 | COc1cccc(/C=C(/C#N)c2ccc(F)cc2)c1OCc1cccc(C(=O)O)c1 | 20 µM [rising, single point] | 
2 | COc1ccc(Br)c(/C=N/NC(=O)COc2ccc(-c3ccccc3)cc2)c1 | 6.31 µM [rising, partial curve] | 8.91 µM [rising, partial curve, poor fit]
3 | CCn1c(=N)c(C(=O)OC)cc2c(=O)n3ccccc3nc21 |  | 0.141 µM [falling, full curve, poor fit]
4 | COc1ccc(CSc2cccc3cccnc23)cc1[N+](=O)[O-] | 20 µM [rising, partial curve, poor fit] | 25.1 µM [rising, single point]
5 | O=C(c1ccccc1)c1ccc2nc(N3CCCCC3)c3nncn3c2c1 |  | 35.5 µM [rising, single point]
6 | COc1ccccc1CNCC(O)(c1ccc(Cl)cc1)c1ccc(Cl)cc1 | 11.2 µM [falling, partial curve] | 12.6 µM [falling, partial curve]
7 | CCOC(=O)c1ccc(NC(=O)CSc2nnc(CCc3ccc(C)o3)n2-c2ccccc2)cc1 | 5.62 µM [falling, single point] | 5.62 µM [falling, single point]
8 | COc1ccc(-n2c(SCC(=O)NCC3CCCO3)nc3n[nH]c(C)c3c2=N)cc1 (stereo unspecified) |  | 35.5 µM [rising, single point]
9 | Cc1ccccc1Cn1c(CN2CCc3ccccc3C2)nc2c1c(=O)n(C)c(=O)n2C |  | 35.5 µM [rising, single point]
10 | N[C@H](Cc1c[nH]c2ccccc12)C(=O)O |  | 0.0891 µM [rising, full curve]
11 | Cn1cc(/C=C2/SC(=O)N(CC(=O)Nc3ccc4c(c3)OCO4)C2=O)c2ccccc21 | 10 µM [falling, partial curve] | 11.2 µM [falling, partial curve]
12 | COc1ccc(C(C(=O)NC2CCCC2)N(Cc2ccccc2)C(=O)c2nsc(Cl)c2Cl)cc1 (stereo unspecified) |  | 35.5 µM [rising, single point]
13 | CCC1=NN2C(=N)/C(=C\c3cccn3-c3cccc(Cl)c3)C(=O)N=C2S1 | 5.62 µM [rising, single point] | 
14 | Cc1ccc(CNC(=O)/C=C/c2ccc(S(=O)(=O)NCc3ccco3)cc2)cc1 | 31.6 µM [rising, single point] | 35.5 µM [rising, single point]
15 | O=[N+]([O-])c1nn(-c2ccc(Cl)cc2)n(O)c1=NCc1cccnc1 | 35.5 µM [falling, partial curve, poor fit] | 35.5 µM [falling, partial curve, poor fit]
16 | COCCNC(=O)Cn1c(-c2cccs2)cc2cc(Cl)ccc21 | 0.0178 µM [falling, full curve] | 0.0178 µM [falling, full curve, poor fit]
17 | CCN1/C(=C\c2ccc3ccccc3[n+]2CC)Sc2cc(C)ccc21 | 3.16 µM [rising, full curve] | 
18 | COc1ccc(CN2CCNC(=O)C2CC(=O)N(C)Cc2ccon2)cc1OC (stereo unspecified) |  | 0.1 µM [falling, full curve, poor fit]
19 | COc1cc(C(=O)NCCc2sc(-c3ccc(C)cc3)nc2C)cc(OC)c1OC | 11.2 µM [falling, partial curve, poor fit] | 11.2 µM [falling, partial curve, poor fit]
20 | O=C(NCc1ccc2c(c1)OCO2)c1ccc(CS(=O)(=O)Cc2cccc(Cl)c2)o1 |  | 12.6 µM [rising, partial curve, poor fit]
21 | O=C(Nc1ccc2c(c1)CCC2)C1CCCN(c2ncccn2)C1 (stereo unspecified) | 5.01 µM [rising, partial curve] | 12.6 µM [rising, partial curve]
22 | CC1(C)Cc2c(cnn2-c2ccccc2)-c2c1c1ccccc1n2CC(O)CCl (stereo unspecified) |  | 11.2 µM [rising, partial curve]
23 | CCNC(=S)N=Nc1c(O)n(Cc2ccc(Cl)cc2)c2ccccc12 | 7.94 µM [rising, partial curve, poor fit] | 7.08 µM [rising, partial curve, poor fit]
24 | COc1ccc(-c2nc3ccccc3o2)cc1NC(=O)COc1cc(C)cc(C)c1 | 35.5 µM [falling, partial curve, poor fit] | 44.7 µM [falling, partial curve, poor fit]
25 | COc1ccc(OC)c(-n2cc3c(=O)n(C)c(=O)n(C)c3c2)c1 | 0.00398 µM [rising, full curve, poor fit] | 0.00501 µM [rising, full curve, poor fit]
26 | Cc1cc(C)c2c(c1)NC(c1cc3c(cc1Br)OCO3)C1CC=CC21 (stereo unspecified) |  | 12.6 µM [rising, partial curve, poor fit]
27 | CN(C)c1ccc(-c2cc(-n3ccnc3)ncn2)cc1 | 35.5 µM [rising, single point] | 35.5 µM [rising, single point]

Exported as tab-separated lines: part of the list above.
Row	Compound	AC50 [1]	AC50 [2]
8	COc1ccc(-n2c(SCC(=O)NCC3CCCO3)nc3n[nH]c(C)c3c2=N)cc1 (stereo unspecified)		35.5 µM [rising, single point]
15	O=[N+]([O-])c1nn(-c2ccc(Cl)cc2)n(O)c1=NCc1cccnc1	35.5 µM [falling, partial curve, poor fit]	35.5 µM [falling, partial curve, poor fit]
19	COc1cc(C(=O)NCCc2sc(-c3ccc(C)cc3)nc2C)cc(OC)c1OC	11.2 µM [falling, partial curve, poor fit]	11.2 µM [falling, partial curve, poor fit]
21	O=C(Nc1ccc2c(c1)CCC2)C1CCCN(c2ncccn2)C1 (stereo unspecified)	5.01 µM [rising, partial curve]	12.6 µM [rising, partial curve]
23	CCNC(=S)N=Nc1c(O)n(Cc2ccc(Cl)cc2)c2ccccc12	7.94 µM [rising, partial curve, poor fit]	7.08 µM [rising, partial curve, poor fit]

Remaining list, next part.

Row | Compound | AC50 [1] | AC50 [2]
28 | CN(C)c1ccc(/C=C/C(=O)c2ccc3c(c2)OCCO3)cc1[N+](=O)[O-] | 35.5 µM [falling, single point] | 35.5 µM [falling, single point]
29 | CCOC(=O)c1ccc(N=C2SC(C(=O)NCCc3ccccc3)CC(=O)N2C)cc1 (stereo unspecified) |  | 12.6 µM [falling, partial curve, poor fit]
30 | CCCn1c(NCc2cc(OC)ccc2OC)nc2ccccc21 |  | 28.2 µM [rising, partial curve, poor fit]
31 | COc1ccc(O)c(CNc2ccccc2F)c1 | 0.0708 µM [rising, single point] | 
32 | COc1cc(C(=O)NC2(C(F)(F)F)C(=O)NC(C)=C2C#N)cc(OC)c1OC (stereo unspecified) | 1 µM [rising, full curve, poor fit] | 1.41 µM [rising, full curve, poor fit]
33 | Cc1cc(NC(=O)Nc2ccc3c(ccn3C)c2)sn1 |  | 6.31 µM [falling, partial curve, poor fit]
34 | COc1ccccc1-n1cnc2cc(NCc3ccco3)ccc21 |  | 2.82 µM [rising, single point]
35 | O=C(O)c1ccc(O)c(N2C(=O)Nc3ccccc3N2O)c1 |  | 6.31 µM [falling, partial curve, poor fit]
36 | COCc1c(C#N)c(NCCc2ccccc2)nc(C)c1[N+](=O)[O-] |  | 28.2 µM [falling, single point]
37 | O=S(=O)(Nc1ccc2c(c1)OCCO2)c1ccc2oc3ccccc3c2c1 | 12.6 µM [rising, partial curve, poor fit] | 11.2 µM [rising, partial curve]
38 | COc1ccc(N2CC(C(=O)NCCS(=O)(=O)N3CCN(c4ccccc4)CC3)CC2=O)cc1 (stereo unspecified) | 4.47 µM [falling, full curve, poor fit] | 5.62 µM [falling, full curve]
39 | O=C(CCCN1CCN(c2ccccn2)CC1)c1ccc(F)cc1 | 1.26 µM [falling, full curve] | 1.58 µM [falling, full curve]
40 | O=C(Nc1cc(Sc2ccccn2)cc([N+](=O)[O-])c1)c1cccc(F)c1 |  | 20 µM [rising, single point]
41 | CC1CCN(c2ccc(C(=O)NCCc3ccccc3)cn2)CC1 | 31.6 µM [rising, single point] | 35.5 µM [rising, single point]
42 | CCc1cccc(NC(=O)c2cnc(N3CCOCC3)c3ccccc23)c1 | 0.794 µM [falling, full curve] | 0.0224 µM [falling, full curve]
43 | CCOC(=O)c1cc(-c2ccccc2)n(CCCC(=O)Nc2ccc(C)c(Cl)c2)c1C |  | 31.6 µM [rising, single point]
44 | COc1cc(-c2nnc(SCc3ccccc3Cl)o2)cc(OC)c1OC |  | 12.6 µM [rising, single point]
45 | CCOC(=O)c1scc(-c2ccccc2)c1S(=O)(=O)Nc1ccccc1OC | 7.08 µM [rising, partial curve] | 
46 | CCCCN(C)CCC(=O)Nc1ccc2c(c1)CCC2 | 11.2 µM [falling, single point] | 
47 | CC1Oc2ccccc2OC1(O)c1ccc2ccccc2n1 (stereo unspecified) |  | 22.4 µM [rising, single point]
48 | COc1ccc(NS(=O)(=O)c2cc(NC(=O)c3cccs3)ccc2N2CCCC2)cc1 | 10 µM [falling, partial curve, poor fit] | 8.91 µM [falling, partial curve, poor fit]
49 | Cn1c(=O)n(C)c2cc([N+](=O)[O-])c(N3CCN(C(=O)c4ccccc4)CC3)cc21 |  | 12.6 µM [rising, partial curve]
50 | Cn1cnc([N+](=O)[O-])c1Sc1ccc(Br)cc1 |  | 10 µM [rising, partial curve]
51 | COc1ccc(/C=N/n2c(SC)nnc2-c2ccccc2)c(OC)c1OC |  | 7.94 µM [rising, partial curve]
52 | CSCC[C@H](NC(=O)NC1CCCC1)C(=O)O | 0.0158 µM [rising, full curve, poor fit] | 0.0158 µM [rising, full curve, poor fit]
53 | Cc1cc(C)c(NC(=O)CSc2nc3ccccc3c3nc(-c4ccccc4)nn23)c(C)c1 | 0.501 µM [falling, partial curve, poor fit] | 
